# From the supplement of paper PMC8728848
# The list shows a part of the results.
# Tests used:
# Test in all cases: glycan array binding signal (z-score within array); higher = stronger binding
# Conditions in all cases: glycan notation: IUPAC condensed, linker removed
# [1] = molecular target: Gal(b1-4)GlcNAc(b1-6)Gal(b1-4)GlcNAc
# How it was run: (§1)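 The Consortium for Functional Glycomics database supplied 3228 glycan arrays, of which those lacking an available protein sequence were dropped. The binding signal, a within-array Z-score, was averaged across arrays of the same protein sequence and across linkers. Negative scores can be read as non-binding.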
# [2] = molecular target: Gal(b1-4)GlcNAc(b1-6)GalNAc
# How it was run: as §1
# [3] = molecular target: Gal(b1-4)GlcNAc(b1-6)[Gal(b1-3)]GalNAc
# How it was run: as §1
# [4] = molecular target: Gal(b1-4)GlcNAc(b1-6)[Gal(b1-4)GlcNAc(b1-3)]GalNAc
# How it was run: as §1
# [5] = molecular target: Gal(b1-4)GlcNAc6P
# How it was run: as §1
# [6] = molecular target: Gal(b1-6)Gal
# How it was run: as §1
# [7] = molecular target: Gal3S(b1-3)GalNAc
# How it was run: as §1
# [8] = molecular target: Gal3S(b1-3)GlcNAc
# How it was run: as §1
# [9] = molecular target: Gal3S(b1-3)[Fuc(a1-4)]GlcNAc
# How it was run: as §1
# [10] = molecular target: Gal3S(b1-4)Glc
# How it was run: as §1
# [11] = molecular target: Gal3S(b1-4)Glc6S
# How it was run: as §1
# [12] = molecular target: Gal3S(b1-4)GlcNAc
# How it was run: as §1
# [13] = molecular target: Gal3S(b1-4)[Fuc(a1-3)]Glc6S
# How it was run: as §1
# [14] = molecular target: Gal3S(b1-4)[Fuc(a1-3)]GlcNAc
# How it was run: as §1
# [15] = molecular target: Gal3S(b1-4)[Fuc(a1-3)]GlcNAc6S
# How it was run: as §1
# [16] = molecular target: Gal3S4S(b1-4)GlcNAc
# How it was run: as §1
# [17] = molecular target: Gal3S6S(b1-4)GlcNAc
# How it was run: as §1
# [18] = molecular target: Gal3S6S(b1-4)GlcNAc6S
# How it was run: as §1
# [19] = molecular target: Gal4S(b1-4)GlcNAc
# How it was run: as §1
# [20] = molecular target: Gal4S6S(b1-4)GlcNAc
# How it was run: as §1
# [21] = molecular target: Gal6P(b1-4)GlcNAc
# How it was run: as §1
# [22] = molecular target: Gal6S(b1-3)GlcNAc
# How it was run: as §1
# [23] = molecular target: Gal6S(b1-3)GlcNAc6S
# How it was run: as §1
# [24] = molecular target: Gal6S(b1-4)Glc
# How it was run: as §1
# [25] = molecular target: Gal6S(b1-4)Glc6S
# How it was run: as §1
# [26] = molecular target: Gal6S(b1-4)GlcNAc
# How it was run: as §1
# [27] = molecular target: Gal6S(b1-4)GlcNAc6S
# How it was run: as §1
# [28] = molecular target: GalNAc(a1-3)Gal
# How it was run: as §1
# [29] = molecular target: GalNAc(a1-3)GalNAc
# How it was run: as §1
# [30] = molecular target: GalNAc(a1-3)GalNAc(b1-3)Gal(a1-4)Gal(b1-4)Glc
# How it was run: as §1
# [31] = molecular target: GalNAc(a1-3)GalNAc(b1-3)Gal(a1-4)Gal(b1-4)GlcNAc
# How it was run: as §1
# [32] = molecular target: GalNAc(b1-3)Gal
# How it was run: as §1
# [33] = molecular target: GalNAc(b1-3)Gal(a1-4)Gal(b1-4)GlcNAc
# How it was run: as §1
# [34] = molecular target: GalNAc(b1-3)Gal(a1-4)Gal(b1-4)GlcNAc(b1-3)Gal(b1-4)Glc
# How it was run: as §1
# [35] = molecular target: GalNAc(b1-3)Gal(a1-6)Gal(b1-4)Glc
# How it was run: as §1
# [36] = molecular target: GalNAc(b1-3)GalNAc
# How it was run: as §1
# [37] = molecular target: GalNAc(b1-3)GlcNAc
# How it was run: as §1
# [38] = molecular target: GalNAc(b1-4)Gal(b1-4)Glc
# How it was run: as §1
binder,measurement,setting,value
"AT1G77380(17) (Arabidopsis thaliana), Q39134 (protein) MVQNHQTVLAVDMPQTGGSKYLDDDGKNKRTGSVWTASAHIITAVIGSGVLSLAWATAQLGWLAGPVVMLLFSAVTYFTSSLLAACYRSGDPISGKRNYTYMDAVRSNLGGVKVTLCGIVQYLNIFGVAIGYTIASAISMMAIKRSNCFHKSGGKDPCHMNSNPYMIAFGLVQILFSQIPDFDQLWWLSILAAVMSFTYSSAGLALGIAQVVVNGKVKGSLTGISIGAVTETQKIWRTFQALGDIAFAYSYSIILIEIQDTVKSPPSEEKTMKKATLVSVSVTTMFYMLCGCMGYAAFGDLSPGNLLTGFGFYNPYWLLDIANAAIVIHLIGAYQVYCQPLFAFIEKQASIQFPDSEFIAKDIKIPIPGFKPLRLNVFRLIWRTVFVIITTVISMLLPFFNDVVGLLGALGFWPLTVYFPVEMYIAQKKIPRWSTRWVCLQVFSLGCLVVSIAAAAGSIAGVLLDLKSYKPFRSEY",glycan array binding signal (z-score),[1],-0.725
same,glycan array binding signal (z-score),[2],0.61
same,glycan array binding signal (z-score),[3],0.891
same,glycan array binding signal (z-score),[4],-0.041
same,glycan array binding signal (z-score),[5],-0.806
same,glycan array binding signal (z-score),[6],-0.084
same,glycan array binding signal (z-score),[7],0.088
same,glycan array binding signal (z-score),[8],1.15
same,glycan array binding signal (z-score),[9],-0.061
same,glycan array binding signal (z-score),[10],0.107
same,glycan array binding signal (z-score),[11],-0.465
same,glycan array binding signal (z-score),[12],0.792
same,glycan array binding signal (z-score),[13],0.338
same,glycan array binding signal (z-score),[14],-0.327
same,glycan array binding signal (z-score),[15],0.275
same,glycan array binding signal (z-score),[16],-0.634
same,glycan array binding signal (z-score),[17],0.114
same,glycan array binding signal (z-score),[18],1.11
same,glycan array binding signal (z-score),[19],0.045
same,glycan array binding signal (z-score),[20],-0.468
same,glycan array binding signal (z-score),[21],-0.442
same,glycan array binding signal (z-score),[22],-0.519
same,glycan array binding signal (z-score),[23],-0.57
same,glycan array binding signal (z-score),[24],0.042
same,glycan array binding signal (z-score),[25],-0.34
same,glycan array binding signal (z-score),[26],-0.004
same,glycan array binding signal (z-score),[27],-0.166
same,glycan array binding signal (z-score),[28],-0.605
same,glycan array binding signal (z-score),[29],0.267
same,glycan array binding signal (z-score),[30],-0.209
same,glycan array binding signal (z-score),[31],2.28
same,glycan array binding signal (z-score),[32],2.3
same,glycan array binding signal (z-score),[33],0.17
same,glycan array binding signal (z-score),[34],0.373
same,glycan array binding signal (z-score),[35],-0.708
same,glycan array binding signal (z-score),[36],-0.83
same,glycan array binding signal (z-score),[37],-0.169
same,glycan array binding signal (z-score),[38],2.04

# Laid out differently: entries from further up
binder | measurement | setting | value
AT1G77380(17) (Arabidopsis thaliana), Q39134 (protein) MVQNHQTVLAVDMPQTGGSKYLDDDGKNKRTGSVWTASAHIITAVIGSGVLSLAWATAQLGWLAGPVVMLLFSAVTYFTSSLLAACYRSGDPISGKRNYTYMDAVRSNLGGVKVTLCGIVQYLNIFGVAIGYTIASAISMMAIKRSNCFHKSGGKDPCHMNSNPYMIAFGLVQILFSQIPDFDQLWWLSILAAVMSFTYSSAGLALGIAQVVVNGKVKGSLTGISIGAVTETQKIWRTFQALGDIAFAYSYSIILIEIQDTVKSPPSEEKTMKKATLVSVSVTTMFYMLCGCMGYAAFGDLSPGNLLTGFGFYNPYWLLDIANAAIVIHLIGAYQVYCQPLFAFIEKQASIQFPDSEFIAKDIKIPIPGFKPLRLNVFRLIWRTVFVIITTVISMLLPFFNDVVGLLGALGFWPLTVYFPVEMYIAQKKIPRWSTRWVCLQVFSLGCLVVSIAAAAGSIAGVLLDLKSYKPFRSEY | glycan array binding signal (z-score) | [5] | -0.806
same | glycan array binding signal (z-score) | [6] | -0.084
same | glycan array binding signal (z-score) | [7] | 0.088
